Our source for the binding result and Kd values is PMC11077067, “Protein G-quadruplex interactions and their effects on phase transitions and protein aggregation”.

Residue numbers refer to the chain shown, from its start. Tags and fusion partners may be left off the protein sequences shown. For some assays here: The exact form of at least one protein or probe is not confirmed. For some assays here: The comparison behind a weaker result is the experiment's own reference, which may not be listed here. For some assays here: At least one verdict rests on a figure or table, not on a statement of the authors. Bounds are passed on as bounds.

Series [1] deals with T1, Znf706 (Homo sapiens) (UniProt Q9Y5V0).
T1 sequence (looked up): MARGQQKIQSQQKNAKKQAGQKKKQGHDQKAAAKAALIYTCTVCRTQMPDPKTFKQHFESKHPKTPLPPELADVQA
Kind of series: fluorescence polarization. To be noted: 100 mM LiCl (G4 disfavored), Kd substantially increased, value in figure; FP/anisotropy: 20 mM NaPi, 100 mM KCl, 0.05% NaN3, pH 7.4, 25 C (LiCl variant: 20 mM Tris-HCl, 100 mM LiCl, pH 7.4); recombinant protein; residues 1-76; label: 5' 6-FAM; folded or branched DNA.

For series [2], the target named is T2, Znf706 C-terminal zinc finger (Homo sapiens) (UniProt Q9Y5V0).
T2 sequence (looked up): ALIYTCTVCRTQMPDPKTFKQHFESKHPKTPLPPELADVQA
Kind of series: fluorescence polarization. To be noted: 100 mM KCl, very weak, FP/anisotropy: 20 mM NaPi, 0.05% NaN3, pH 7.4, 25 C (LiCl variant: 20 mM Tris-HCl, 100 mM LiCl, pH 7.4), recombinant protein, residues 36-76, label: 5' 6-FAM, folded or branched DNA.

Series [3] addresses T1, Znf706 (Homo sapiens). Kind of series: NMR. To be noted: perturbation not predominantly N-terminal at 5 uM, perturbed at 50 uM G4; NMR: 20 mM NaPi, 100 mM KCl, 7.5% D2O, pH 7.4, 4-50 C; recombinant protein; residues 1-76; folded or branched DNA.
The target of series [4] is T3, Znf706 A76C-MTSL (Homo sapiens) (UniProt Q9Y5V0).
T3 sequence (looked up): T1 sequence (looked up) with A76C
Kind of series: PRE NMR. To be noted: reciprocal PRE on N-terminus, cMyc implied; NMR: 20 mM NaPi, 100 mM KCl, 7.5% D2O, pH 7.4, 4-50 C; recombinant protein; residues 1-76; folded or branched DNA.

For series [5], the target named is T4, Znf706 A2C-NEM (Homo sapiens) (UniProt Q9Y5V0).
T4 sequence (looked up): T1 sequence (looked up) with A2C
In words: NMR. The conditions noted are these: 2:1 protein:DNA, 100 mM KCl, 4 C, NMR: 20 mM NaPi, 7.5% D2O, pH 7.4, 4-50 C, recombinant protein, residues 1-76, folded or branched DNA.

With AGGAGGGGGGCGGGA [Bcl2SH, 6-FAM], the binding result in series [1] is recorded as “binds more weakly”. The Kd in series [2] is above 200 µM.

For the sequence GGCGAGGAGGGGCGTGGCCGGC [Kit*], in series [3], the binding result was “binds more weakly”.

Regarding GGGCGCGGGAGGAAGGGGGCGGG [Bcl2WT, 6-FAM], the Kd in series [2] is above 200 µM.

Turning to “TAGGGAGGGTAGGGAGGGT [cMyc (Pu19_A2A11), 6-FAM]”, the binding result in series [1] is listed as “binds more weakly”. In series [2], the Kd was above 200 µM.

In the case of TAGGGAGGGTAGGGAGGGT [cMyc (Pu19_A2A11)], the binding result in series [4] and in series [5] was “binds” throughout.
